Assay results taken from article doi:10.1101/2020.07.05.188557.
These are yes or no findings as the source states them, for the method shown. In cells and extracts the contact can be indirect. Where a sequence is shown, tags or fusion partners need not be part of it.

By UniProt entry, the sequences of proteins in these tests, tags left out. Where a name states a change or a piece, a line headed by the entry shows the natural chain unless it says otherwise.
UniProt Q02774, whole entry, looked up, stated change not applied: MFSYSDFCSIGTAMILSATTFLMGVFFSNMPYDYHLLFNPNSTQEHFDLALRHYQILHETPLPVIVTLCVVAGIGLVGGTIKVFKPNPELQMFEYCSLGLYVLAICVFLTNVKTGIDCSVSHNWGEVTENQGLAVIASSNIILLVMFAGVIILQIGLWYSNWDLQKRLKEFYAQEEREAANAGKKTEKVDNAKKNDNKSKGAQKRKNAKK

Target: T1, Gap1-Cub-GST-6xHA (S. cerevisiae) (UniProt P19145)
T1 sequence: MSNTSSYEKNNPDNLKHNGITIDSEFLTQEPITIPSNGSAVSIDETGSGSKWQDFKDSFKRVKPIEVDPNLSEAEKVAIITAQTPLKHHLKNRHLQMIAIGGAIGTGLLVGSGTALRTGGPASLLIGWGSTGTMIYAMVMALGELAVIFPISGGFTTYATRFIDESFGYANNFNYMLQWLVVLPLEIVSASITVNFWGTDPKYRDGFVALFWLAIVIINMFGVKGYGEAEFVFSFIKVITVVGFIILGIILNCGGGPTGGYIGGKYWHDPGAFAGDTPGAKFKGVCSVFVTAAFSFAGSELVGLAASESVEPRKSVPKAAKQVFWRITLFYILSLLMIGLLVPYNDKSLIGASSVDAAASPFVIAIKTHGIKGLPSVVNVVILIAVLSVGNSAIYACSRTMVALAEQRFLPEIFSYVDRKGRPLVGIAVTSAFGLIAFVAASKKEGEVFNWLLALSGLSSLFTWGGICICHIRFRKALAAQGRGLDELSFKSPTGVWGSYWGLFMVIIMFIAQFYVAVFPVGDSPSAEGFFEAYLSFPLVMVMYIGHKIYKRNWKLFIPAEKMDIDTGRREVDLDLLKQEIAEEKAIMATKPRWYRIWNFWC
Assay: split reporter

B1: shr3-35-NubA (protein, UniProt Q02774 1-210)
chain: MFSYSDFCSIGTAMILLLLTFLMGVFFSNMPYDYHLLFNPNSTQEHFDLALRHYQILHETPLPVIVTLCVVAGIGLVGGTIKVFKPNPELQMFEYCSLGLYVLAICVFLTNVKTGIDCSVSHNWGEVTENQGLAVIASSNIILLVMFAGVIILQIGLWYSNWDLQKRLKEFYAQEEREAANAGKKTEKVDNAKKNDNKSKGAQKRKNAKK
binding: no binding
